# Test results as given in the supplement of paper PMC7666118.
# By UniProt entry, the sequences of proteins in these tests, tags left out. Where a name states a change or a piece, a line headed by the entry shows the natural chain unless it says otherwise.
# UniProt Q92618: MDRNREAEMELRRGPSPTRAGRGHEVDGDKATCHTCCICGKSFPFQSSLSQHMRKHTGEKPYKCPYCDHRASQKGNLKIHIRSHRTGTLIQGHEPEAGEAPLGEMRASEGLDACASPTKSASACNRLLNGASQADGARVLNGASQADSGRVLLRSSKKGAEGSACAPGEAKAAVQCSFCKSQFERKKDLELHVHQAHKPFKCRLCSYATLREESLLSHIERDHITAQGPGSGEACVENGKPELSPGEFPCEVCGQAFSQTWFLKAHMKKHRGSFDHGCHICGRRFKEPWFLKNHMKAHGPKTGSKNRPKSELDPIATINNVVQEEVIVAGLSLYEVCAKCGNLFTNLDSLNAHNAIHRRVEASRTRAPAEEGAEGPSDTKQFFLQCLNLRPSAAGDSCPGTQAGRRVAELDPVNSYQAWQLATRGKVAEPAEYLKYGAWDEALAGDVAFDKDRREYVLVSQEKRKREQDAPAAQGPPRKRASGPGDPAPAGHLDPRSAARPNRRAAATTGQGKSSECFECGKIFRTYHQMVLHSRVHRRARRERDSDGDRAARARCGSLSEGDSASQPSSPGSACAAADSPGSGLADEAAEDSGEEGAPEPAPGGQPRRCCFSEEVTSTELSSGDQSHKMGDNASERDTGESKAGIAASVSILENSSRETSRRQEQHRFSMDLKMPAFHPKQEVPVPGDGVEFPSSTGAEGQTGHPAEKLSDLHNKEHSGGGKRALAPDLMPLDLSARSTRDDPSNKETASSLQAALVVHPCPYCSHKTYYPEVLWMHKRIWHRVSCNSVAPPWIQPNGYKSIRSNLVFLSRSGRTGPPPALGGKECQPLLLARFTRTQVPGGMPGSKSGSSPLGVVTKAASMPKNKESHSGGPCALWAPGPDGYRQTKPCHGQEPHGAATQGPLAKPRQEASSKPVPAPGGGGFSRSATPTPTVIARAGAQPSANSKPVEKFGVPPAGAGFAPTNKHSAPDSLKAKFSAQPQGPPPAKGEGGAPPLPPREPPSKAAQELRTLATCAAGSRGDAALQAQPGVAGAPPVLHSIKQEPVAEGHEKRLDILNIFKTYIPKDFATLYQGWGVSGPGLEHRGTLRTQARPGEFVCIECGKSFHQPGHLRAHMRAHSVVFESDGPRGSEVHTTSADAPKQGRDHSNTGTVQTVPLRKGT
# UniProt P0CG23: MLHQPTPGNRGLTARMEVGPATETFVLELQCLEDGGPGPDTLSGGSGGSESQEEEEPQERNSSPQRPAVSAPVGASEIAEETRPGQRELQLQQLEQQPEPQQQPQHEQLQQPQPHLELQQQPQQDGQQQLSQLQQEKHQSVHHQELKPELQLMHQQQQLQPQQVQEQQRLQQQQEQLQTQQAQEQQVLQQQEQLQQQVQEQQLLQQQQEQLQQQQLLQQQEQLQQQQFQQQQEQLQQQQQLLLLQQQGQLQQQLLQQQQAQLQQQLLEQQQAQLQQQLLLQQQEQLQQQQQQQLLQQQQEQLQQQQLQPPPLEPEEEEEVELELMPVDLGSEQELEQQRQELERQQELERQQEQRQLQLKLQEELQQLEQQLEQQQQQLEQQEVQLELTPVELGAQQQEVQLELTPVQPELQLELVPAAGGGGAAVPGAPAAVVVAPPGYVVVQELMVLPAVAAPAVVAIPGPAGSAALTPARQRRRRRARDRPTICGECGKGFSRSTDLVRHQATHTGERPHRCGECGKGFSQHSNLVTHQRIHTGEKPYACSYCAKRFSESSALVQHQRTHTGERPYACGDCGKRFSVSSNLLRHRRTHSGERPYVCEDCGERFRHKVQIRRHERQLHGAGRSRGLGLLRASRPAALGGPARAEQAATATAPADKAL
# UniProt Q9C0B5: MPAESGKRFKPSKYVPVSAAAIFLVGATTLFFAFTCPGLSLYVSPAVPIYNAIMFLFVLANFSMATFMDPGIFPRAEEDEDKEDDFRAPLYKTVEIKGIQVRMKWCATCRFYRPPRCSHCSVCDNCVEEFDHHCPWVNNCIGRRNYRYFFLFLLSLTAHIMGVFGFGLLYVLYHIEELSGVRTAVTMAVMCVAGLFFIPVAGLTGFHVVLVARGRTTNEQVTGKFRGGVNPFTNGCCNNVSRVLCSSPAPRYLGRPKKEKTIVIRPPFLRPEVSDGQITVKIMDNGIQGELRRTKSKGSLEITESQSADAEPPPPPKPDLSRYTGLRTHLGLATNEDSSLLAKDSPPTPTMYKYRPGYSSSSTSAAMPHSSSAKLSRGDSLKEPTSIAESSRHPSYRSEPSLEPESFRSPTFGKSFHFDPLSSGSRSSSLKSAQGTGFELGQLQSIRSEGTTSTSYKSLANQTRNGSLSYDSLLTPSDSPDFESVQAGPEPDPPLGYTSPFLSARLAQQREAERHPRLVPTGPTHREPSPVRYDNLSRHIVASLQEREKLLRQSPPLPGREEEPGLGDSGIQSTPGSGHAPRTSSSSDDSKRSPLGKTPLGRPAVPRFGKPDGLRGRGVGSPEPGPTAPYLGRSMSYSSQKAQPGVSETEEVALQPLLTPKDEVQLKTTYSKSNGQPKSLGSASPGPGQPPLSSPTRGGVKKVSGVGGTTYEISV
# UniProt O43592: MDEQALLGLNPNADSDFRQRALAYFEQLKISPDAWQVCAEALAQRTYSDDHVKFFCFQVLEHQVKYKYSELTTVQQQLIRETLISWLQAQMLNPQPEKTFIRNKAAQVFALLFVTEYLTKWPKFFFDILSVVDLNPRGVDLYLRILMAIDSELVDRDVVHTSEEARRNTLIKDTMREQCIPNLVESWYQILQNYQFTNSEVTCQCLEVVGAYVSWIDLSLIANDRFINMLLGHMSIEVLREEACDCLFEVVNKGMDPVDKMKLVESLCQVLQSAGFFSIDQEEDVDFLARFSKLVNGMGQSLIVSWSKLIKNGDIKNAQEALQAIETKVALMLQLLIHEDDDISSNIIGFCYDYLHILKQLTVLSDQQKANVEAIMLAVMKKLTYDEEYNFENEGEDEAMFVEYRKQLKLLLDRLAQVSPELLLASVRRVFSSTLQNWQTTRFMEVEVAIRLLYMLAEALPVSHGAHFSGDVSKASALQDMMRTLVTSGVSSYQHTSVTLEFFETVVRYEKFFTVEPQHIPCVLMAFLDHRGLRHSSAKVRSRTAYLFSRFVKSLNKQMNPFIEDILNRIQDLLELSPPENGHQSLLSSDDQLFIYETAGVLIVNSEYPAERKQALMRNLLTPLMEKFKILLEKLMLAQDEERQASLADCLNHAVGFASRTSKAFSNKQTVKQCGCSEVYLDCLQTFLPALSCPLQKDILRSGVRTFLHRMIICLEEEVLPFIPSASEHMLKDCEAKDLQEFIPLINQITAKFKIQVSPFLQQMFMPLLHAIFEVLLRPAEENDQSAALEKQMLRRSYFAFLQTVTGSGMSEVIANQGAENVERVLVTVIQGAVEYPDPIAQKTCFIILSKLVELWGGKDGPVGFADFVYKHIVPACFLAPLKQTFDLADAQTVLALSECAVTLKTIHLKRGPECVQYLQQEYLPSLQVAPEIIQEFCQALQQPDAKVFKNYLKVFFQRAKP
# UniProt Q9P2S5: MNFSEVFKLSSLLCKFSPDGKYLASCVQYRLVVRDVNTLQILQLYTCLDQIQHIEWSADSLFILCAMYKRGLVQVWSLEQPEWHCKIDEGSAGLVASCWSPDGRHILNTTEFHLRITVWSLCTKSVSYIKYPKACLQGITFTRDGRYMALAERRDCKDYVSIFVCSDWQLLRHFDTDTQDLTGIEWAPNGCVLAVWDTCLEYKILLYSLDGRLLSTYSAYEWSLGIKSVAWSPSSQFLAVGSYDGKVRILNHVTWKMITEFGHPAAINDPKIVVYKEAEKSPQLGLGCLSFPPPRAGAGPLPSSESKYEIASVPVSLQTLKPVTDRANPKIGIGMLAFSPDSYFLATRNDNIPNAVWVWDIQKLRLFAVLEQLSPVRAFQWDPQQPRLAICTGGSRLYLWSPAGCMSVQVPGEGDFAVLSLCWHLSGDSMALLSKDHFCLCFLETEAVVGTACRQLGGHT
# UniProt Q9Y5V0: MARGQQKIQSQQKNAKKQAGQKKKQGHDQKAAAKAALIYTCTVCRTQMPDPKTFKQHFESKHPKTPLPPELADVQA
# UniProt Q96KR1: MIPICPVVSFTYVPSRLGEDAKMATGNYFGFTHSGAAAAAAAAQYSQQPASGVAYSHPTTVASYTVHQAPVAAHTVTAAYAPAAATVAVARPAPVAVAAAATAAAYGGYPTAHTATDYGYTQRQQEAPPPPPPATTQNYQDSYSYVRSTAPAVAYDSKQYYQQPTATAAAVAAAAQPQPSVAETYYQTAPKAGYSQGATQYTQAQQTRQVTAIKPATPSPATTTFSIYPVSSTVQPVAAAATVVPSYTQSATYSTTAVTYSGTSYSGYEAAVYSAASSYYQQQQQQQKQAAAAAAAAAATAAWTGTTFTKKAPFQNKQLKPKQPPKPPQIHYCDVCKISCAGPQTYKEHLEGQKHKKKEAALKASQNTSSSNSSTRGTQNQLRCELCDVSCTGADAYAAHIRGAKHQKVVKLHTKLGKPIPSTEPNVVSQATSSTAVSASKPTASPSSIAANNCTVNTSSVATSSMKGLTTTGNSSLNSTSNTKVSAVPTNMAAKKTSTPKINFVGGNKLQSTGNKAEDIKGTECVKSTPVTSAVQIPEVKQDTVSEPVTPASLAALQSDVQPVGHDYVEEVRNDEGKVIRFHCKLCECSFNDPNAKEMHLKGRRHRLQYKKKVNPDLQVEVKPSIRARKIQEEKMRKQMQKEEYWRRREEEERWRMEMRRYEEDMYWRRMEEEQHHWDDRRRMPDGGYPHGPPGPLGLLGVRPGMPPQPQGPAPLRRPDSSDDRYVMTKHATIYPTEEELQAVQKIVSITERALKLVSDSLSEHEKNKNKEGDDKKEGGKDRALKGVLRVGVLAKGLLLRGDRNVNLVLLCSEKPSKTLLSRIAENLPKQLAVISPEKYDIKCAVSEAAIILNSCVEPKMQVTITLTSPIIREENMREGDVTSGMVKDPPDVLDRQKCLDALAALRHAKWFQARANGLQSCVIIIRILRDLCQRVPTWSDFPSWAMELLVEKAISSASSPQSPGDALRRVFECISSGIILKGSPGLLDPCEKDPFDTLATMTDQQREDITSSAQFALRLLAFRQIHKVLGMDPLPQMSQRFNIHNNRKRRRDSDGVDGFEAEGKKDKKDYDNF
# UniProt Q9ULJ3: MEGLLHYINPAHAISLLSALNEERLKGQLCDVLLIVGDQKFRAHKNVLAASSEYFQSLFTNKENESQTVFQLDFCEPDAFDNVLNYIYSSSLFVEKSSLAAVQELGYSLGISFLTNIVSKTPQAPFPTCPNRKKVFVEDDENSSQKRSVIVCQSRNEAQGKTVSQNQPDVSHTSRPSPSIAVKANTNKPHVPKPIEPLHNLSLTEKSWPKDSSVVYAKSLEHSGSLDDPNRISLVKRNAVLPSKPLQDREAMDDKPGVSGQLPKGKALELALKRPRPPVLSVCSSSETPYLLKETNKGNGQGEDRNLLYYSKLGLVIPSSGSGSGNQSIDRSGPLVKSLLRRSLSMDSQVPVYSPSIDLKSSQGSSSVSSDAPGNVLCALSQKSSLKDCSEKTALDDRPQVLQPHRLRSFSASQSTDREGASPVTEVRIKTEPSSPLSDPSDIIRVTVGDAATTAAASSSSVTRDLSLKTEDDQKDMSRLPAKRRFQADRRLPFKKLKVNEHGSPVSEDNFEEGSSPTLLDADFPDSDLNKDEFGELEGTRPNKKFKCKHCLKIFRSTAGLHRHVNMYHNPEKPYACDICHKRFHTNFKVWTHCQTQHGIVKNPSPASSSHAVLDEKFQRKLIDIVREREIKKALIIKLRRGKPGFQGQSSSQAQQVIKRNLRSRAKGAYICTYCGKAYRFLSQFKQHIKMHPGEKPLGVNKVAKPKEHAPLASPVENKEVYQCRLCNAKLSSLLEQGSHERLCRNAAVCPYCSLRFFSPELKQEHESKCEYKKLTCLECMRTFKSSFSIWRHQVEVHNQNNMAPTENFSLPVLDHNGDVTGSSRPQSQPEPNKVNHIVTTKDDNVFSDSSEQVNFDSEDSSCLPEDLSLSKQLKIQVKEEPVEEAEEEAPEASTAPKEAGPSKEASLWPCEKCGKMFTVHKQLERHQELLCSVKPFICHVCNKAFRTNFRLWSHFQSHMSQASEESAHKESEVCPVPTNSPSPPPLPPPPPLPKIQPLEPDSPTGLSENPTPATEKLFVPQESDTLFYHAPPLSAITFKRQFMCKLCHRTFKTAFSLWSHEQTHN
# UniProt Q9UIJ5: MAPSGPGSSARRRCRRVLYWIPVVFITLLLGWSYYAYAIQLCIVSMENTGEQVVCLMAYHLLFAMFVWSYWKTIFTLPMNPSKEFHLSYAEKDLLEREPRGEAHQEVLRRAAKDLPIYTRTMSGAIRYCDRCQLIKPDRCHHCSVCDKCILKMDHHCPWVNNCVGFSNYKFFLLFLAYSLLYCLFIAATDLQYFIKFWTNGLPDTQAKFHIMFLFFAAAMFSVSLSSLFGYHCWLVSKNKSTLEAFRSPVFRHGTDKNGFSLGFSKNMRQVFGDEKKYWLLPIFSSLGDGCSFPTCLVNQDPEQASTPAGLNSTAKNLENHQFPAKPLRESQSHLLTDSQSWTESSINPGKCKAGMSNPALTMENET
# The list shows a part of the results.
# Compound: COc1ccc(Cn2ccc3cc(C)c(C(=O)NO)cc32)cc1
# Experiment: dose-dependent thermal stabilisation call (2D-TPP, DLPTP, 10% FDR) (binary (1 = stabilised)); higher = stabilised by the compound
# Conditions: system: HL-60 intact cells; concentration range 0.04-10 µM
# Description: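 2D thermal proteome profiling in intact HL-60 cells treated with BRD-3811 (0, 0.04, 0.29, 2, 10 uM) for 90 min at 37 C, then heated 3 min at one of 12 temperatures (42-63.9 C). Soluble protein was quantified by TMT10 MS. The value is the DLPTP call of the paper: dose-dependent thermal stabilisation over all temperatures at 10% FDR (F-test of a dose-response against a flat model); one experiment, one call per tested protein.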
row,Target,dose-dependent thermal stabilisation call
1,ZNF516 (UniProt Q92618),inactive: 0
2,ZNF830 (UniProt Q96NB3),inactive: 0
3,ZMYM3 (UniProt Q14202),inactive: 0
4,ZADH2 (UniProt Q8N4Q0),inactive: 0
5,ZNF853 (UniProt P0CG23),inactive: 0
6,ZNF22 (UniProt P17026),inactive: 0
7,ZCCHC8 (UniProt Q6NZY4),inactive: 0
8,ZDHHC5 (UniProt Q9C0B5),inactive: 0
9,WDR54 (UniProt Q9H977),inactive: 0
10,ZAK (UniProt Q9NYL2),inactive: 0
11,YTHDC1 (UniProt Q96MU7),inactive: 0
12,WDR75 (UniProt Q8IWA0),inactive: 0
13,XPOT (UniProt O43592),inactive: 0
14,WDR92 (UniProt Q96MX6),inactive: 0
15,WDR8 (UniProt Q9P2S5),inactive: 0
16,XPO6 (UniProt Q96QU8),inactive: 0
17,ZNF414 (UniProt Q96IQ9),inactive: 0
18,WDR42A (UniProt Q5TAQ9),inactive: 0
19,YWHAQ (UniProt P27348),inactive: 0
20,ZDHHC18 (UniProt Q9NUE0),inactive: 0

row,Target,dose-dependent thermal stabilisation call
1,WEE1 (UniProt P30291),inactive: 0
2,ZMYND8 (UniProt Q9ULU4),inactive: 0
3,ZNF687 (UniProt Q8N1G0),inactive: 0
4,WDSOF1 (UniProt Q9NV06),inactive: 0
5,ZNF706 (UniProt Q9Y5V0),inactive: 0
6,ZZEF1 (UniProt O43149),inactive: 0
7,ZC3H14 (UniProt Q6PJT7),inactive: 0
8,YARS (UniProt P54577),inactive: 0
9,ZC3HC1 (UniProt Q86WB0),inactive: 0
10,ZNF592 (UniProt Q92610),inactive: 0
11,ZFR (UniProt Q96KR1),inactive: 0
12,ZNF295 (UniProt Q9ULJ3),inactive: 0
13,ZCCHC6 (UniProt Q5VYS8),inactive: 0
14,ZMYM4 (UniProt Q5VZL5),inactive: 0
15,ZDHHC2 (UniProt Q9UIJ5),inactive: 0
16,ZKSCAN4 (UniProt Q969J2),inactive: 0
17,WDR44 (UniProt Q5JSH3),inactive: 0
18,ZNHIT2 (UniProt Q9UHR6),inactive: 0
19,ZFYVE16 (UniProt Q7Z3T8),inactive: 0
20,ZNF638 (UniProt Q14966),inactive: 0

# Taken from above:
# YWHAQ (UniProt P27348) – dose-dependent thermal stabilisation call: inactive: 0
# ZFR (UniProt Q96KR1) – dose-dependent thermal stabilisation call: inactive: 0
# ZDHHC2 (UniProt Q9UIJ5) – dose-dependent thermal stabilisation call: inactive: 0
